Data published in article PMC9911399, “Two distinct binding modes provide the RNA-binding protein RbFox with extraordinary sequence specificity”.
Residue numbers refer to the chain shown, from its start. For part of these data: The comparison behind a weaker result is the experiment's own reference, which may not be listed here. For part of these data: Tags and fusion partners may be left off the protein sequences shown. For part of these data: For at least one entry, the source does not settle the construct or the ends of the probe. For part of these data: At least one verdict was read from the data and is not stated in words by the source. For part of these data: The direction of at least one scale is not stated here.

Legend:
[1] = molecular target: T1, RBFOX1 RRM (Homo sapiens) (UniProt Q9NWB1); assay: SPR; conditions: purified recombinant protein; variant of UGCAUGU; cited from earlier work
T1 sequence (looked up, limits assumed): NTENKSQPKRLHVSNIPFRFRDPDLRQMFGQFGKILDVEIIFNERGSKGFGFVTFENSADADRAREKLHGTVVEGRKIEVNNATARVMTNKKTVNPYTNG

RbFox RRM (wt) [2] = molecular target: T2, RbFox RRM (wt) (UniProt Q9NWB1); assay: competition EMSA; conditions: 32P-labeled UGCAUGU displaced, EMSA: 10 mM Tris pH 7.5, 150 mM NaCl, 3.4 mM EDTA, 0.001% NP-40, 30 C, 10 min, 1 nM RNA, 8% native PAGE, recombinant protein, residues 109-208; for binding result: value only in Fig 1f
T2 sequence (looked up): T1 sequence (looked up, limits assumed)

[3] = molecular target: T3, RbFoxmut (RRM with four substitutions) (UniProt Q9NWB1); assay: NMR HSQC titration; conditions: slow exchange, affinity better than uM, NMR: 10 mM sodium phosphate pH 6.0, 30 mM NaCl, 298 K (RNA spectra), recombinant protein, protein details: His-tag (HisTrap)
T3 sequence: T1 sequence (looked up, limits assumed)

[4] = molecular target: T4, RBFOX1 RRM RbFoxmut (Fox-RRM*) R118D,E147R,N151S,E152T (Homo sapiens) (UniProt Q9NWB1); assay: NMR; conditions: 10 mM sodium phosphate pH 6.0, 30 mM NaCl, 298 K; purified recombinant protein; residues 109-208; variant of UGCAUGU
T4 sequence (looked up): T1 sequence (looked up, limits assumed) with R10D, E39R, N43S, E44T

RbFox RRM (wt) [5] = molecular target: T2, RbFox RRM (wt); assay: EMSA; conditions: binding barely detectable, estimated lower limit; EMSA: 10 mM Tris pH 7.5, 150 mM NaCl, 3.4 mM EDTA, 0.001% NP-40, 30 C, 10 min, 1 nM RNA, 8% native PAGE; recombinant protein; residues 109-208; label: 5' 32P (EMSA), unlabeled (NMR)
RbFox RRM (wt) [6] = molecular target: T2, RbFox RRM (wt); assay: NMR HSQC titration and solution structure; conditions: intermediate exchange, new structure, PDB id not in material; NMR: 10 mM sodium phosphate pH 6.0, 30 mM NaCl, 298 K (RNA spectra); recombinant protein; residues 109-208; label: unlabeled
RbFox RRM (wt) [7] = molecular target: T2, RbFox RRM (wt); assay: NMR HSQC titration; conditions: intermediate exchange, binds more weakly than RNA1; NMR: 10 mM sodium phosphate pH 6.0, 30 mM NaCl, 298 K (RNA spectra); recombinant protein; residues 109-208; label: unlabeled

Sequence	binding signal (ln(KA relative to UGCAUGU)) [1]	further results
AGCAUGU	-1.86	–
CGCAUGU	-1.28	–
CGGUUGU	-5.77	–
GGAAUGU	-4.08	–
GGCAUGU	-1.81	–
GGCUUGU	-6.14	–
GGGUUGU	-5.91	–
UACAUGU	–	binding result (RbFox RRM (wt) [2]): binds more weakly
UGAAUCU	–	binding result ([3]; label: unlabeled): binds; binding result [4]: binds
UGAAUGU	–	half-maximal binding (RbFox RRM (wt) [5]): > 17 µM; binding result ([3]; label: 5' 32P (EMSA), unlabeled (NMR)): binds; binding result [4]: binds
UGCAAGU	–	binding result (RbFox RRM (wt) [2]; label: unlabeled competitor): binds more weakly
UGCACGU	-2.42	–
UGCAUAU [RNA1 UGCAUAU]	–	binding result (RbFox RRM (wt) [6]): binds more weakly; binding signal (ln(KA,rel) vs UGCAUGU) (RbFox RRM (wt) [2]; HiTS-Eq value -4.4678, label: …): -7.01
UGCAUGA	0.687	–
UGCAUGC	-0.273	–
UGCAUGG	0.201	–
UGCCUGU	-3.79	–
UGCGUGU	–	binding result (RbFox RRM (wt) [2]; label: unlabeled competitor): binds more weakly
UGCUUGU	-4.26	–
UUCAUGU [RNA2 UUCAUGU]	–	binding result (RbFox RRM (wt) [7]): binds more weakly
